In publication PMC2848011:
No constants are given. Whether binding was seen depends on the method and setting. Blank lines part the entries; values can stand above or below the binder they belong to.

Sequences of proteins named here, by UniProt entry; tags and fusion partners are left off.
UniProt P08047: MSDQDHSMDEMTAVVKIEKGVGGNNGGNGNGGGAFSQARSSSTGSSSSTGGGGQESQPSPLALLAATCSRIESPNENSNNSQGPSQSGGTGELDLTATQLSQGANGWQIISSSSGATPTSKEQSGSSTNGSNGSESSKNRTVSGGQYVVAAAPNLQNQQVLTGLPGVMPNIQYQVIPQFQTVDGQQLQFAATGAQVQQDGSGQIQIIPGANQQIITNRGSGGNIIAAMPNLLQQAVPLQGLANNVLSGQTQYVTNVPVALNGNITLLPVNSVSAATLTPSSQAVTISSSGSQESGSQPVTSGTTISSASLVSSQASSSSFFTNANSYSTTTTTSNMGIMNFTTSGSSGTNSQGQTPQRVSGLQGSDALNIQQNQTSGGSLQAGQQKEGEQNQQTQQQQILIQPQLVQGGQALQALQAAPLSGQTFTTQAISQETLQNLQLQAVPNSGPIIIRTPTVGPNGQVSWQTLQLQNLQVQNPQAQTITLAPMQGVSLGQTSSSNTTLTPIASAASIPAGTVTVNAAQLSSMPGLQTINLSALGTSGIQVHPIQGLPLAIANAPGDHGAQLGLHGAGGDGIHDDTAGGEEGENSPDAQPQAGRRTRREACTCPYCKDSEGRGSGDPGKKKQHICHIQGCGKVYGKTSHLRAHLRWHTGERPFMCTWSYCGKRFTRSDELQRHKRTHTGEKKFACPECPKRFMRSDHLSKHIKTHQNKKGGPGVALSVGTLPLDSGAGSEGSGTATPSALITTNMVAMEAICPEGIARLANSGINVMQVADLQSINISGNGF

Assays:
[1] = molecular target: Specificity Protein 1 (Sp1) (human (endogenous in U937)) (UniProt P08047); assay: native gel or EMSA; super-shift EMSA: radio labeled hres Sp1 oligonucleotide (-276 to -295), 7.5 µg U937 nuclear extract (unstimulated; Sp1-Sp3 also with PMA stimulated extract), 2 µg of antibody to each factor; Sp1 binding buffer (10 mM Tris-Cl pH 7.5, 75 mM KCl, 0.1 mM EDTA, 2.5 mM MgCl2, 0.25 mM DTT, 10% glycerol), on ice
[2] = molecular target: Specificity Protein 1 (Sp1) (human (endogenous in U937)), P08047; assay: as above; conditions: remark: other sources report otherwise

- binding [1]: no binding
B1: c-Rel (protein, UniProt Q04864 1-619)
chain: MASGAYNPYIEIIEQPRQRGMRFRYKCEGRSAGSIPGEHSTDNNRTYPSIQIMNYYGKGKVRITLVTKNDPYKPHPHDLVGKDCRDGYYEAEFGQERRPLFFQNLGIRCVKKKEVKEAIITRIKAGINPFNVPEKQLNDIEDCDLNVVRLCFQVFLPDEHGNLTTALPPVVSNPIYDNRAPNTAELRICRVNKNCGSVRGGDEIFLLCDKVQKDDIEVRFVLNDWEAKGIFSQADVHRQVAIVFKTPPYCKAITEPVTVKMQLRRPSDQEVSESMDFRYLPDEKDTYGNKAKKQKTTLLFQKLCQDHVETGFRHVDQDGLELLTSGDPPTLASQSAGITVNFPERPRPGLLGSIGEGRYFKKEPNLFSHDAVVREMPTGVSSQAESYYPSPGPISSGLSHHASMAPLPSSSWSSVAHPTPRSGNTNPLSSFSTRTLPSNSQGIPPFLRIPVGNDLNASNACIYNNADDIVGMEASSMPSADLYGISDPNMLSNCSVNMMTTSSDSMGETDNPRLLSMNLENPSCNSVLDPRDLRQLHQMSSSSMSAGANSNTTVFVSQSDAFEGSDFSCADNSMINESGPSNSTNPNSHGFVQDSQYSGIGSMQNEQLSDSFPYEFFQV

- binding [2]: no binding
B2: c-Jun, P05412 1-331 (protein)
chain: MTAKMETTFYDDALNASFLPSESGPYGYSNPKILKQSMTLNLADPVGSLKPHLRAKNSDLLTSPDVGLLKLASPELERLIIQSSNGHITTTPTPTQFLCPKNVTDEQEGFAEGFVRALAELHSQNTLPSVTSAAQPVNGAGMVAPAVASVAGGSGSGGFSASLHSEPPVYANLSNFNPGALSSGGGAPSYGAAGLAFPAQPQQQQQPPHHLPQQMPVQHPRLQALKEEPQTVPEMPGETPPLSPIDMESQERIKAERKRMRNRIAASKCRKRKLERIARLEEKVKTLKAQNSELASTANMLREQVAQLKQKVMNHVNSGCQLMLTQQLQTF

- binding [1]: no binding
B3: activating transcription factor 2 (ATF-2) (protein, UniProt P15336 1-505)
chain: MKFKLHVNSARQYKDLWNMSDDKPFLCTAPGCGQRFTNEDHLAVHKHKHEMTLKFGPARNDSVIVADQTPTPTRFLKNCEEVGLFNELASPFENEFKKASEDDIKKMPLDLSPLATPIIRSKIEEPSVVETTHQDSPLPHPESTTSDEKEVPLAQTAQPTSAIVRPASLQVPNVLLTSSDSSVIIQQAVPSPTSSTVITQAPSSNRPIVPVPGPFPLLLHLPNGQTMPVAIPASITSSNVHVPAAVPLVRPVTMVPSVPGIPGPSSPQPVQSEAKMRLKAALTQQHPPVTNGDTVKGHGSGLVRTQSEESRPQSLQQPATSTTETPASPAHTTPQTQSTSGRRRRAANEDPDEKRRKFLERNRAAASRCRQKRKVWVQSLEKKAEDLSSLNGQLQSEVTLLRNEVAQLKQLLLAHKDCPVTAMQKKSGYHTADKDDSSEDISVPSSPHTEAIQHSSVSTSNGVSSTSKAEAVATSVLTQMADQSTEPALSQIVMAPSSQSQPSGS
